Source: patent US20260098089A1

Columns and labels:
[1] = biological target: Cynomolgus monkey (Macaca fascicularis) CD7 protein (soluble) (cynomolgus monkey (Macaca fascicularis)); test: SPR
[2] = biological target: Cynomolgus monkey (Macaca fascicularis) CD7 protein (soluble) (cynomolgus monkey (Macaca fascicularis)); test: SPR, mAb captured, single concentration of cynomolgus CD7 protein as analyte (concentration not given)
[3] = biological target: Cynomolgus monkey (Macaca fascicularis) CD7 protein (soluble) (cynomolgus monkey (Macaca fascicularis)); test: SPR, soluble CD7

Measured: binding

B1: 1741G09 (antibody, V domains shown)
VH: EVQLVESGGGLVKPGGSLRLSCAASGFSFSVAWMSWVRQAPGKGLEWVGRIKRKTDGGTTDYAAPVKGRFIISRDDSIKALYLQMNSLKTEDTAVYYCTTDPLLRYSDWLSHSLMGDVWGQGTTVTVSS
VL: DIQMTQSPSSLSASVGDRVAITCRTSQNINNYLNWYQQKPGKAPKPLIYAASSLQSGVPSRFSGSGSGTDFTLTISTLHPEDFATYYCQQTYSIPLTFGGGTKVEIK
binds: [1] | [2] | [3]

B2: 1730C02 (antibody, V domains shown)
VH: EVQLVESGGGLVQLGGSLRLSCAASGLTFNNYAMSWVRQAPGKGLEWVSTISGSGGSTYYADSAKGRFTISRDNSKNTLYLQMNSLRAEDTAVYYCAKGGLLYFGEFHFDYWGQGTLVTVSS
VL: DIQMTQSPSSLSASVGDRVTIICRASQGISNYLAWFQQKPGKAPKSLIYAASSLQSGVPSKFSGSGSGTDFTLTISSLQPEDFATYYCQHYNSYPLTFGGGTKVEIK
binds: [1] | [2] | [3]

B3: 1734F05 (antibody, V domains shown)
VH: EVQLVESGGGLVQPGGSLRLSCAASGFTFSRYAMSWVRQAPGKGLEWVSSISASGATTFYADPVKGRFTISRDNSKKTLYLQMNSLRAEDTAVYYCAKDQDFDILTGYLNWFDPWGQGTLVTVSS
VL: EIVLTQSPATLSLSPGERVILSCRVSQSVSSYLAWYQQKPGQAPRLLIYDTSNRATGIPARFSGSGSGTDFTLTISSLEPEDFAVYYCQQRRNWPLTFGGGTKVEIK
binds: [1] | [2] | [3]

Results are given in words; binding and its absence hold for the method and conditions named. A result given as binding can be weak or reduced; the word gives no strength.
